Data: PubChem BioAssay (NCATS)
Several values for one entry are separate records, joined by “and”; a condition that tells them apart may be missing. Equal values may be shown once. Inconclusive means that the source gave no clear call. Such entries were picked first, then a sample of the others. Potencies beside an inconclusive call are fits to weak or partial responses and may not hold up. “Side channel” marks fits to a control or component signal instead of the main read-out. Activity calls are given as the source filed them. Calls follow the shape of the dose curve; as a rule, active = well fitted activation curve with a large enough effect in the signal ratio; inconclusive = small, poorly fitted or top-dose-only effect, or effect the other way, or a change in a side signal; inactive = flat fitted curve, though single readings scatter; the % refers to the signal ratio.
Potency is read from the fitted curve at half-maximal effect.

Test: qHTS assay for small molecule agonists of the antioxidant response element (ARE) signaling pathway (AID 651741); as to activation: % of control where 0% means no effect
Conditions: HepG2 ARE-bla reporter, beta-lactamase FRET ratio, 16 h; activation: at 96 µM (top of the series) unless noted
From the text: National Center for Advancing Translational Sciences [NCATS]
NIH Chemical Genomics Center [NCGC]
U.S. Environmental Protection Agency [EPA]
National Institutes of Environmental Health Sciences [NIEHS]
National Toxicology Program [NTP]
Oxidative stress has been implicated in the pathogenesis of a variety of diseases ranging from cancer to neurodegeneration. The antioxidant response element (ARE) signaling pathway plays an important role in the amelioration of oxidative stress. The CellSensor ARE-bla HepG2 cell line (Invitrogen) can be used for analyzing the Nrf2/antioxidant response signaling pathway. Nrf2 (NF-E2-related factor 2) and Nrf1 are transcription factors that bind to AREs and activate these genes. The CellSensor ARE-bla Hep G2 cell line contains a beta-lactamase reporter gene under control of the Antioxidant Response Element (ARE) stably integrated into HepG2 cells. The activation of the report gene under culture conditions can be detected by fluorescence intensity. This cell line can be used to screen chemicals in a 1536-well plate format and to identify agonists that induce oxidative stress.
The ARE-bla cells were dispensed at 2,000 cells/5 ul/well in 1536-well black wall/clear bottom plates using a Multidrop dispenser. After the assay plates were incubated at a 37 C/5% CO2 incubator for 5 hours, 23 nL of compounds dissolved in DMSO, positive controls or DMSO only was transferred to the assay plate by a pin tool. The plates were incubated at 37 C for 16 hours. After 1 uL of LiveBLAzer B/G FRET substrate was added using a Flying Reagent Dispenser, the plates were incubated at room temperature for 2 hours, and fluorescence intensity was measured by an Envision plate reader.
With `CCCCCCCCCCCCC1CO1` (stereo not given) the activation was inconclusive: 8.55%. In the case of `CCCCOC(=O)/C=C\C(=O)OCCCC`, the activation is reported as inconclusive: 12.1%. For `C=C(C)C(=O)OCC(C)C`, the Potency was inconclusive: 23.7 µM [fluorescent, side channel, partial curve, poor fit]. For `CS(C)=O`, the activation was inconclusive: 14% [at 65 mM]. In the case of `Nc1ccc(Nc2ccccc2)cc1`, the Potency is reported as active: 30.6 µM. With `OCCNCCO` the Potency was inconclusive: 75 µM [activator, single point] and the activation was inconclusive: 7.06%. In the case of `O=P(O)(OCc1ccccc1)OCc1ccccc1`, the “activation” value is reported as inactive: 4.77%. With `COC(=O)CCCCC(=O)OC` the activation was inconclusive: 8.24% and inconclusive: 12.1% and inconclusive: 9.83%. With `CCCCCCCCC` the “activation” value was inactive: 3.02%. In the case of `C=C(C)OC(C)=O`, the “activation” value is reported as inactive: 0.612%. In the case of `Cc1ccc([N+](=O)[O-])c(N)c1`, the Potency is reported as inconclusive: 75 µM [activator, partial curve, poor fit]. With `BrC1CCC(Br)C(Br)CCC(Br)C(Br)CCC1Br` (stereo not given) the “activation” value was inactive: -1.37%. With `c1ccc2cc3ccccc3cc2c1` the “activation” value was inactive: 11.6%. For `CCCCC(CC)CN` (stereo not given), the activation was inconclusive: 11.3%. In the case of `Nc1cc(Cl)nc(C(=O)O)c1Cl`, the “activation” value is reported as inactive: 2.49%. In the case of `Cn1c(=O)[nH]c(=O)n(C2CCC(O)CC2)c1=O` (stereo not given), the Potency is reported as inconclusive: 77 µM [activator, partial curve, poor fit]. With `c1ccc2c(c1)[nH]c1ccccc12` the activation was inconclusive: 8.63%. In the case of `CO/N=C1\C[C@]2(C[C@@H]3C[C@@H](C/C=C(\C)C[C@@H](C)/C=C/C=C4\CO[C@@H]5[C@H](O)C(C)=C[C@@H](C(=O)O3)[C@]45O)O2)O[C@H](/C(C)=C/C(C)C)[C@H]1C`, the Potency is reported as inconclusive: 21.7 µM [cytotoxic, side channel, full curve]. With `C=C(C#N)C(=O)OCC` the “activation” value was inactive: 1.99%. With `C[C@]12CC[C@@H]3c4ccc(O)cc4CC[C@H]3[C@@H]1CC[C@H]2O` the “activation” value was inactive: 1.66%. For `C[N+](C)(C)CC(O)CCl` (stereo not given), the activation was inconclusive: 0.821%. In the case of `CC(C)(O)CCC(C)(C)O`, the activation is reported as inconclusive: 0.958%. For `CCCCCCCCCCCCCCC`, the activation was inconclusive: -2.44%. In the case of `C=CC(=O)NC(C)(C)CS(=O)(=O)O`, the Potency is reported as “inactive”. For `C=CCOc1nc(OCC=C)nc(OCC=C)n1`, the Potency was inconclusive: 68.6 µM [activator, single point]. For `Cc1ccc([N+](=O)[O-])c(C)c1`, the activation was inconclusive: -4.13%. With `CC1(C)C(=O)N(Br)C(=O)N1Cl` the Potency was inconclusive: 68.6 µM [activator, single point]. For `Nc1cc([N+](=O)[O-])ccc1O`, the Potency was active: 29.8 µM and active: 12.2 µM. With `Cc1ccc2cccnc2c1` the “activation” value was inactive: -0.897%. With `Cc1cccc2cccnc12` the Potency was inconclusive: 66.8 µM [activator, partial curve, poor fit]. In the case of `Cc1cc(C)cc(N)c1`, the “activation” value is reported as inactive: 0.666%. For `O=C(OCCOCCOC(=O)c1ccccc1)c1ccccc1`, the Potency was inconclusive: 68.6 µM [activator, single point]. With `CC(C)Cc1c(C(=O)O)c(C(F)F)nc(C(F)(F)F)c1C1=NCCS1` the “activation” value was inactive: 1.43%. In the case of `CCCCC(CC)COC(=O)CCCCC(=O)OCC(CC)CCCC` (stereo not given), the activation is reported as inconclusive: 12.5%. For `CC[C@H]1O[C@]2(CC[C@@H]1C)C[C@@H]1C[C@@H](C/C=C(\C)C[C@@H](C)/C=C/C=C3CO[C@@H]4[C@H](O)C(C)=C[C@@H](C(=O)O1)[C@]34O)O2`, the Potency was inconclusive: 48.6 µM [cytotoxic, side channel, partial curve].

Same assay, conditions: HepG2 ARE-bla reporter, beta-lactamase FRET ratio, 16 h; at 96 µM (top of the series)
For `CCCCC(CC)CN` (stereo not given), the activation was inactive: 3.37%. In the case of `c1ccc2c(c1)[nH]c1ccccc12`, the activation is reported as inactive: 9.09%. For `Cc1ccc([N+](=O)[O-])c(C)c1`, the activation was inactive: 1.92%. In the case of `CCCCC(CC)COC(=O)CCCCC(=O)OCC(CC)CCCC` (stereo not given), the activation is reported as inactive: -0.36%.
